Results: publication PMC5347783
These are yes or no findings as the source states them, for the method shown. Binding seen in cells or lysates may run through a third protein. Some binding calls cover weakened binding; strength is not graded here.

Sequences of proteins named here, by UniProt entry; tags and fusion partners are left off.
UniProt Q9Y5Q3: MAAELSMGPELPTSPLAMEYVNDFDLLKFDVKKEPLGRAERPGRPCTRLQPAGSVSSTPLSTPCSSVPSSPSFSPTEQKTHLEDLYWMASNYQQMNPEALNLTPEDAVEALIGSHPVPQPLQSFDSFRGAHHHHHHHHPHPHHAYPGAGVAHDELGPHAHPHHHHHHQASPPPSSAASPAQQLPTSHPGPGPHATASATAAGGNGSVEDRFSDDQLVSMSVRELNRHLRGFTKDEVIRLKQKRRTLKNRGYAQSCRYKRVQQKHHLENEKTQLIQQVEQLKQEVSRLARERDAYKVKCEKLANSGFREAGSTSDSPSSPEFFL
UniProt P63279: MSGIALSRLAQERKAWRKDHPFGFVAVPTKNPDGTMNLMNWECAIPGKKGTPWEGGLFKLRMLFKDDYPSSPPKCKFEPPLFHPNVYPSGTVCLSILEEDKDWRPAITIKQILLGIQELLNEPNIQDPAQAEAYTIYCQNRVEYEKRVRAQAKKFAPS

Molecular target: Flag-tagged MAFB (v-maf avian musculoaponeurotic fibrosarcoma oncogene homolog B) (human) (UniProt Q9Y5Q3)
Assay: co-IP; Flag-MAFB and HA-UBC9 co-transfected into HEK293T cells; lysates immunoprecipitated with Flag gel or HA gel; western blot with antibodies against Flag and HA

binding: binds
Substance: HA-UBC9 (SUMO E2 conjugating enzyme UBC9) (from UniProt P63279 1-158)
